Results from PubChem BioAssay AID194 (DTP/NCI, 2004).
The list is a part of this screen's results and no random one: it gathers some chemical classes. Other doses and runs of a compound may be missing. T/C gives the treated animals as a percentage of the vehicle group. Schedule codes are those of the source, taken here to give the interval after Q, in days (D) or hours (H), and the number of doses after X. Some entries were tested several times; the values are given in rising order. Some T/C values are followed by the survivors on the day toxicity was checked; where neither a count nor a note follows, no animal had died by that day. Some entries give survivors of the animals treated and no T/C: the source holds a T/C of zero for them, seemingly a mark for toxic or unscored doses. Some survivor counts are full or nearly so, which does not show that the dose was tolerated: the source hardly ever lists a survival T/C far under the control, and the zero likely stands for such cases as well. Counts of survivors are from the toxicity check (mostly the fifth day) where no day follows; animals may have died later. Where survival is the endpoint, the PubChem record calls one and a half times the control and up active, and a quarter to a half above the control has no call in these data; cut-offs in other NCI protocols can differ. Some T/C values are followed by the survivors on the day toxicity was checked, most often the fifth; without a count or a note in brackets, all were alive then. Counts like (3×) say how often a value occurs here.

Tested on: BDF1 mice, B16 melanoma s.c., survival/tumor T/C
Experiment: NCI In Vivo Anticancer Drug Screen. Data for tumor model B16 Melanoma (subcutaneous) in B6D2F1 (BDF1) mice
Protocol: The antitumor activity of compounds was measured in mice bearing transplantable tumors. Survival or tumor size were measured and the results are expressed as the measurement made in the treated group (T) divided by the measurement made in the vehicle treated control group (C). The tumor model used in this assay is B16 Melanoma (subcutaneous) in B6D2F1 (BDF1) mice

[1] = T/C endpoint: median survival time, dose: 25.0 mg/kg/injection, schedule: Q01DX009 (ip), vehicle: Klucel (hydroxypropylcellulose) (HPC), higher T/C = longer survival
[2] = T/C endpoint: median survival time, dose: 100.0 mg/kg/injection, schedule: Q01DX009 (ip), vehicle: Klucel (hydroxypropylcellulose) (HPC), higher T/C = longer survival
[3] = T/C endpoint: median survival time, dose: 200.0 mg/kg/injection, schedule: Q01DX009 (ip), vehicle: Klucel (hydroxypropylcellulose) (HPC), higher T/C = longer survival
[4] = T/C endpoint: median survival time, dose: 200.0 mg/kg/injection, schedule: Q01DX009 (ip), vehicle: saline with Tween-80, higher T/C = longer survival
[5] = T/C endpoint: median survival time, dose: 200.0 mg/kg/injection, schedule: Q08DX002 (ip), vehicle: saline with Tween-80, higher T/C = longer survival
[6] = T/C endpoint: median survival time, dose: 400.0 mg/kg/injection, schedule: Q08DX002 (ip), vehicle: Klucel (hydroxypropylcellulose) (HPC), higher T/C = longer survival
[7] = T/C endpoint: median survival time, dose: 800.0 mg/kg/injection, schedule: Q08DX002 (ip), vehicle: Klucel (hydroxypropylcellulose) (HPC), higher T/C = longer survival
[8] = T/C endpoint: median survival time, dose: 800.0 mg/kg/injection, schedule: Q08DX002 (ip), vehicle: saline with Tween-80, higher T/C = longer survival

## O=P(Nc1ncccn1)(N1CC1)N1CC1
T/C endpoint: median survival time, dose: 3.12 mg/kg/injection, schedule: Q01DX009 (ip), vehicle: saline, higher T/C = longer survival
  T/C: 103 % of control
T/C endpoint: median survival time, dose: 6.25 mg/kg/injection, schedule: Q01DX009 (ip), vehicle: saline, higher T/C = longer survival
  T/C: 118 % of control
T/C endpoint: median survival time, dose: 12.5 mg/kg/injection, schedule: Q01DX009 (ip), vehicle: saline, higher T/C = longer survival
  T/C: 122 % of control
T/C endpoint: median survival time, dose: 25.0 mg/kg/injection, schedule: Q01DX009 (ip), vehicle: saline, higher T/C = longer survival
  survivor count: 10 of 10
T/C endpoint: median survival time, dose: 50.0 mg/kg/injection, schedule: Q01DX009 (ip), vehicle: saline, higher T/C = longer survival
  survivor count: 8 of 10
T/C endpoint: median survival time, dose: 100.0 mg/kg/injection, schedule: Q01DX009 (ip), vehicle: saline, higher T/C = longer survival
  survivor count: 0 of 10

## NC(=O)c1[nH]cnc1/N=N\N(CCCl)CCCl
T/C endpoint: median survival time, dose: 12.5 mg/kg/injection, schedule: Q01DX009 (ip), vehicle: Klucel (hydroxypropylcellulose) (HPC), higher T/C = longer survival
  T/C: 98 % of control
[1]
  T/C: 111 [5 of 6 alive], 112, 114, 130, 148 % of control
  survivor count: 5 of 6
T/C endpoint: median survival time, dose: 25.0 mg/kg/injection, schedule: Q01DX009 (ip), vehicle: saline with Tween-80, higher T/C = longer survival
  T/C: 91 and 108 % of control
T/C endpoint: median survival time, dose: 50.0 mg/kg/injection, schedule: Q01DX009 (ip), vehicle: Klucel (hydroxypropylcellulose) (HPC), higher T/C = longer survival
  T/C: 100, 112, 113, 114 [5 of 6 alive], 127, 128 % of control
T/C endpoint: median survival time, dose: 50.0 mg/kg/injection, schedule: Q01DX009 (ip), vehicle: saline with Tween-80, higher T/C = longer survival
  T/C: 112 and 120 % of control
[2]
  T/C: 109, 118, 121, 150, 170 % of control
  survivor count: 6 of 6
T/C endpoint: median survival time, dose: 100.0 mg/kg/injection, schedule: Q01DX009 (ip), vehicle: saline with Tween-80, higher T/C = longer survival
  T/C: 93 [5 of 6 alive] and 147 % of control
T/C endpoint: median survival time, dose: 100.0 mg/kg/injection, schedule: Q08DX002 (ip), vehicle: Klucel (hydroxypropylcellulose) (HPC), higher T/C = longer survival
  T/C: 88, 98, 108, 118, 121, 137 % of control
T/C endpoint: median survival time, dose: 100.0 mg/kg/injection, schedule: Q08DX002 (ip), vehicle: saline with Tween-80, higher T/C = longer survival
  T/C: 102 and 125 % of control
[3]
  T/C: 100 (2×) and 125 % of control
  survivor count: 6 of 6
[4]
  T/C: 104 % of control
  survivor count: 6 of 6
T/C endpoint: median survival time, dose: 200.0 mg/kg/injection, schedule: Q08DX002 (ip), vehicle: Klucel (hydroxypropylcellulose) (HPC), higher T/C = longer survival
  T/C: 94, 95, 104, 112, 115, 118 % of control
[5]
  T/C: 108 % of control
  survivor count: 5 of 6
T/C endpoint: median survival time, dose: 400.0 mg/kg/injection, schedule: Q01DX009 (ip), vehicle: Klucel (hydroxypropylcellulose) (HPC), higher T/C = longer survival
  survivor count: 5 of 6 and 6 of 6
T/C endpoint: median survival time, dose: 400.0 mg/kg/injection, schedule: Q01DX009 (ip), vehicle: saline with Tween-80, higher T/C = longer survival
  survivor count: 4 of 5 and 5 of 6
[6]
  T/C: 100, 122, 125, 139, 150 % of control
  survivor count: 6 of 6
T/C endpoint: median survival time, dose: 400.0 mg/kg/injection, schedule: Q08DX002 (ip), vehicle: saline with Tween-80, higher T/C = longer survival
  T/C: 129 and 135 % of control
[7]
  T/C: 150 % of control
  survivor count: 6 of 6
[8]
  T/C: 93 % of control
  survivor count: 6 of 6
T/C endpoint: median tumor weight (est.), dose: 25.0 mg/kg/injection, schedule: Q01DX009 (ip), vehicle: Klucel (hydroxypropylcellulose) (HPC), evaluated on day 14, higher T/C = larger tumour
  T/C: 25 % of control
T/C endpoint: median tumor weight (est.), dose: 25.0 mg/kg/injection, schedule: Q01DX009 (ip), vehicle: saline with Tween-80, evaluated on day 15, higher T/C = larger tumour
  T/C: 45 and 65 % of control
T/C endpoint: median tumor weight (est.), dose: 50.0 mg/kg/injection, schedule: Q01DX009 (ip), vehicle: Klucel (hydroxypropylcellulose) (HPC), evaluated on day 14, higher T/C = larger tumour
  T/C: 36 % of control [5 of 6 alive]
T/C endpoint: median tumor weight (est.), dose: 50.0 mg/kg/injection, schedule: Q01DX009 (ip), vehicle: saline with Tween-80, evaluated on day 15, higher T/C = larger tumour
  T/C: 65 and 66 % of control
T/C endpoint: median tumor weight (est.), dose: 100.0 mg/kg/injection, schedule: Q01DX009 (ip), vehicle: Klucel (hydroxypropylcellulose) (HPC), evaluated on day 14, higher T/C = larger tumour
  T/C: 5 % of control
T/C endpoint: median tumor weight (est.), dose: 100.0 mg/kg/injection, schedule: Q01DX009 (ip), vehicle: saline with Tween-80, evaluated on day 15, higher T/C = larger tumour
  T/C: 46 and 71 % of control
T/C endpoint: median tumor weight (est.), dose: 100.0 mg/kg/injection, schedule: Q08DX002 (ip), vehicle: Klucel (hydroxypropylcellulose) (HPC), evaluated on day 14, higher T/C = larger tumour
  T/C: 61 % of control
T/C endpoint: median tumor weight (est.), dose: 100.0 mg/kg/injection, schedule: Q08DX002 (ip), vehicle: saline with Tween-80, evaluated on day 15, higher T/C = larger tumour
  T/C: 94 and 100 % of control
T/C endpoint: median tumor weight (est.), dose: 200.0 mg/kg/injection, schedule: Q08DX002 (ip), vehicle: Klucel (hydroxypropylcellulose) (HPC), evaluated on day 14, higher T/C = larger tumour
  T/C: 55 % of control
T/C endpoint: median tumor weight (est.), dose: 200.0 mg/kg/injection, schedule: Q08DX002 (ip), vehicle: saline with Tween-80, evaluated on day 15, higher T/C = larger tumour
  T/C: 60 and 65 % of control
T/C endpoint: median tumor weight (est.), dose: 400.0 mg/kg/injection, schedule: Q08DX002 (ip), vehicle: Klucel (hydroxypropylcellulose) (HPC), evaluated on day 14, higher T/C = larger tumour
  T/C: 9 % of control [5 of 6 alive]
T/C endpoint: median tumor weight (est.), dose: 400.0 mg/kg/injection, schedule: Q08DX002 (ip), vehicle: saline with Tween-80, evaluated on day 15, higher T/C = larger tumour
  T/C: 22 and 28 % of control
T/C endpoint: median tumor weight (est.), dose: 800.0 mg/kg/injection, schedule: Q08DX002 (ip), vehicle: saline with Tween-80, evaluated on day 15, higher T/C = larger tumour
  T/C: 44 % of control
